According to US11951113B2, “Synergestic combination composition comprising a steroidal saponin, a first polyphenolic compound and a second polyphenolic compound” (NEURALIA, priority 2018, dated 2024):
The name of at least one read-out is uncertain. At least one structure is not confirmed: it was looked up by name or label, or the drawing left a doubt.

Tested on: primary cortical neurons injured by glutamate
Experiment: Neuroprotection of primary cortical neurons injured by glutamate: neuron survival and neurite network (MAP-2 staining)
Format: cell-based, rat
Protocol: Rat cortical neurons were cultured as described by Singer et al., (J. Neuroscience, (1999), 19(7), 2455-2463) and Callizot et al. (J. Neurosc., (2013), Res. 91(5), 706-716).
Pregnant females (Wistar; JanvierLabs, St Berthevin, France) at 15 days of gestation were killed by cervical dislocation. Foetuses were collected and immediately placed in ice-cold L15 Leibovitz medium (Pan Biotech, Aidenbach, Germany) with a 2% penicillin (10,000 U/ml) and streptomycin (10 mg/ml) solution (PS; Pan Biotech, Aidenbach, Germany) and 1% bovine serum albumin (BSA; Pan Biotech, Aidenbach, Germany). Cortex was treated for 20 min at 37° C. with a trypsin-EDTA (Pan Biotech, Aidenbach, Germany) solution at a final concentration of 0.05% trypsin and 0.02% EDTA. The dissociation was stopped by addition of Dulbecco's modified Eagle's medium (DMEM) with 4.5 g/liter of glucose (Pan Biotech, Aidenbach, Germany), containing DNAse I grade II (final concentration 0.5 mg/ml; Pan Biotech, Germany) and 10% fetal calf serum (FCS; Invitrogen, Cergy Pointoise, France). Cells were mechanically dissociated by three forced passages through the tip of a 10-ml pipette. Cells were then centrifuged at 515 g for 10 min at 4° C. The supernatant was discarded, and the pellet was resuspended in a defined culture medium consisting of Neurobasal medium (Invitrogen, Cergy Pointoise, France) with a 2% solution of B27 supplement (Invitrogen, Cergy Pointoise, France), 2 mmol/liter of L-glutamine (Pan Biotech, Aidenbach, Germany), 2% of PS solution, and 10 ng/ml of brain-derived neurotrophic factor (BDNF; Pan Biotech, Aidenbach, Germany). Viable cells were counted in a Neubauer cytometer, using the trypan blue exclusion test. The cells were seeded at a density of 30,000 per well in 96-well plates precoated with poly-L-lysine (Corning Biocoat, Tewksbury, USA) and were cultured at 37° C. in an air (95%)-CO2 (5%) incubator. The medium was changed every 2 days. The cortical neurons were intoxicated with glutamate solutions (see below) after 13 days of culture.
On day 13, glutamate (Sigma Aldrich, Lyon, France) was added into cell culture to a final concentration of 40 μM diluted in control medium in presence or absence of test compounds for 20 min. After 20 min, the cells were washed-out and new fresh medium containing or not NSPXX-E2 or NSPXX-E1 extracts was added for 48 h additional time.
After 48 hours of glutamate intoxication, cells were fixed by a cold solution of ethanol (95%, Sigma) and acetic acid (5%, Sigma) for 5 min at −20° C. After permeabilization with 0.1% of saponin (Sigma), cells were incubated for 2 h with mouse monoclonal antibody anti microtubule-associated-protein 2 (MAP-2; Sigma) at dilution of 1/400 in PBS (Pan biotech) containing 1% foetal calf serum (Invitrogen) and 0.1% of saponin.
(§1) For each condition 6 wells were assessed, 30 pictures per well were taken using MetaXpress (molecular device) with 20× magnification (30 pictures at X20 representing ˜80% of the total well surface), to assess neurite network (MAP-2 staining). Analysis of picture was done using MetaXpress custum module editor software (molecular device), the total neurite length per picture was recorded). A mean neurite length of the ten pictures was automatically calculated per well, then one data was provided per well (total of 6 raw data were provided per condition).
as §1, with “magnification” for “magnification (30 pictures at X20 representing ˜80% of the total well surface),”, “cell bodies” for “neurite network”, “number of neurons” for “total neurite length”, “recorded.” for “recorded).”, “of neuron number” for “neurite length”
All values were expressed as mean+/−s.e.mean. […]

[1] = 100 nM-1 μM, glutamate 40 μM, 20 min

## O=c1c(O)c(-c2ccc(O)c(O)c2)oc2cc(O)cc(O)c12 [quercetin]
1 and 10 nM, glutamate injury, significant protective effect
  neuron survival (% of survival): 85%

## O=C(O)/C=C/c1ccc(O)cc1 [COU, coumaric acid]
[1]
  effect on neuritic network: protective effect
  neuron survival (% of survival): ~80%
100 nM, glutamate 40 μM, 20 min
  effect on neuron survival: significant protective effect

## COc1cc(/C=C/C(=O)O)ccc1O [FA, ferulic acid]
1 μM-100 μM, glutamate 40 μM, 20 min
  neuron survival (% of survival): ~80%

## C[C@H]1CC[C@@]2(OC1)O[C@H]1C[C@H]3[C@@H]4CC[C@@H]5C[C@@H](O)CC[C@]5(C)[C@H]4CC[C@]3(C)[C@H]1[C@@H]2C [SAR, sarsasapogenin]
100 pM-100 nM, glutamate 40 μM, 20 min
  neuron survival (% of survival): ~80%

## C[C@@H]1CC[C@@]2(OC1)O[C@H]1C[C@H]3[C@@H]4CC=C5C[C@@H](O)CC[C@]5(C)[C@H]4CC[C@]3(C)[C@H]1[C@@H]2C [DIOSG, diosgenin]
3 pM-30 pM, glutamate 40 μM, 20 min
  neuron survival (% of survival): ~80%
